Experiment: Integrated photoacoustic signal versus dye concentration, limit of detection
Format: physicochemical
Settings: in ethanol
Description: The Limits Of Detection (LOD) was determined to be 0.36 μM according to the following equation (LOD=3×blank×SD of slope/(1-slope)^2. Photoacoustic A imaging was performed on an iThera Medical MSOT inVision 128 tomographer. Next, it was established that there was a linear relationship between dye concentration and the PA signal up to the highest concentration tested (2.0 μM) and a limit of detection of 0.36 μM in ethanol (FIG. 3D).

## CCOC(=O)c1ccccc1C1=c2cc/c(=C3/C=CC(=[N+]4CCCCC4)S3)cc2Oc2cc(-c3ccc(N4CCCCC4)s3)ccc21.[Cl-] [XanthCR-880, 1-{5-[(3E)-9-[2-(Ethoxycarbonyl)phenyl]-6-[5-(piperidin-1-yl)thiophen-2-yl]-3H-xanthen-3-ylidene]-2,5-dihydrothiophen-2-ylidene}-1λ5-piperidin-1-ylium chloride]
  limit of detection (LOD) of photoacoustic signal: 0.36 µM
  linear relationship between dye concentration and PA signal, up to highest concentration tested: ≤ 2.0 µM

Reference: US20240124714A1, “NEAR INFRARED DYES FOR BIOLOGICAL IMAGING AND OPTOELECTRONIC DEVICES” (Mississippi State University, priority 2022, published 2024)
